## Assay results

Data taken from PubChem BioAssay AID1159506, deposited by NCATS (2015).

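Luminescence from an EWS-FLI1 target-promoter (NR0B1) reporter, set against a CMV-promoter reporter, two days after silencing single genes in TC32 Ewing sarcoma cells. Each siRNA was applied at 20 nM. A z-score of the log NR0B1-over-CMV signal, less the median of siRNAs with the same seed; more negative means a stronger specific loss of the NR0B1 reporter.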

The strongest results of the screen are mostly left out here. Sequences are the guide (antisense) strand, without overhang.

| Sequence | target gene | seed-corrected z-score |
|---|---|---|
| `UGUUCUGCAGUUGUCUUCU` | AGRP | -0.04972 |
| `AAUAGUAUGACCCUCGAUG` | POLR2A | -1.153 |
| `AGACUUUUCACGUAUGUCA` | ZNF77 | 0.3109 |
| `UAAAGCCUCAUUCUGAUUC` | TTC4 | 0.3301 |
| `UAAAUCUUCAUGCUUAUCA` | FAM92A1P2 | 0.6193 |
| `AAACAAAGAACAUGCAGCA` | CCL24 | 0.33 |
| `UGAAGAUUCGCGACAAGCC` | G6PC3 | 0.9017 |
| `UAUGUUUAACUGAAAAGCU` | MRPL57 | -0.008618 |
| `UUUUCCUUUGUUGCGCUGG` | HMX1 | -1.099 |
| `UUCUCUGUAGGUACCUUCU` | HMGN2P46 | 0.03829 |
| `ACCUGUCAAAGCUUCCUGG` | GAL | 1.885 |
| `UCAGCUGCACUUUUUGUCA` | CROCC2 | -0.1808 |
| `AAAGGUAUGCAAAAGAUCC` | USP46-AS1 | 0.8052 |
| `UCUCUAACCCUGCACAUCU` | MRPL50 | 0.4148 |
| `UUAAAGAUCAUUAACACCA` | PLLP | 1.299 |
| `AUUAGUAUGAAUACAUAUC` | SNX10 | 0.9929 |
| `UAAGCUUCUGGACCGUAUC` | NUF2 | 0.4587 |
| `UAGGUAAUGACAUCUCUAC` | GTF3C2 | -0.2144 |
| `GUAGGUAGACCAGAUGGCC` | PNKD | 0.2298 |
| `UCAUUUUGCACUUGUGCUG` | FZD10 | 0.6851 |
| `AGACGCAUCAGCUUAGCCC` | PRRT3 | -0.1071 |
| `AACACAAAAAGUCCCAUCA` | PPP1R14B | 0.7936 |
| `UUUGAUAAGAUGAAUUGGA` | MOGAT1 | 0.1426 |
| `UCUCUCAGCAUUCUGGGCU` | FATE1 | 0.4845 |
| `UCAGCAACAGUUUUGAUAC` | GML | -0.29 |
| `UUGAGAAGCAUGUAGGUCC` | PRPS1L1 | 0.0157 |
| `UUUGAUUGAAUCUUUUGGG` | CASC4 | 0.00802 |
| `UUCCGUAAAUAGGCUAUGC` | UNC5D | 0.05987 |
| `AAAGUUAGAAGUUUGGUUU` | PRR23B | 0.02451 |
| `UUGGGUAGAAGAUCGUGCA` | TKTL1 | -1.147 |
| `UACUUUCUCAACCUCCUCG` | NBPF6 | -0.05769 |
| `AUGGGUUCAGCCCUGCUAC` | ZMAT5 | 2.146 |
| `UUCCAGUUCGAAGACCACC` | CRYBB1 | -1.535 |
| `UGCAUAACAGUAAUCAGGC` | DHX8 | -0.6055 |
| `AUAAUUAACAAAUCCUCUG` | NDFIP2 | 0.9119 |
| `UUUCCAGCUGGUUAAGUUC` | UTS2B | -0.215 |
| `AGAGGCAUCAGGCAGUUCG` | SH2D3A | -0.5434 |
| `UUUCUAGCAAGCAAGUUCC` | TBC1D14 | -0.8399 |
| `UAGUUGGUGACAUAGAUCC` | OLFML2A | -0.5463 |
| `UUAUCUUCCUCCACAACCA` | LOC650024 | 1.328 |
| `UUUCCAAAACCCUCUGUAU` | DPF3 | -0.4316 |
| `AUGAGACCCAUUGAGACCC` | NGB | -1.225 |
| `AAAGUAACCUGGAUCUUGC` | ABRA | 0.3062 |
| `UUCUUGUGCAGCUUCCAUG` | LRRC37A4P | 0.511 |
| `UCAAGGUUAACCUCUUUUG` | RGS18 | 0.9738 |
| `UUUUGCAGCAACACGGUGU` | FBXL18 | 0.2898 |
| `UAUUAUAUGUCGUGUUUGC` | LINC01125 | 0.4772 |
| `UAGAUAACAAUCGAUGCUG` | EHBP1 | 0.3028 |
| `UUAACUCCCUGCGUGGGUC` | CDH26 | 0.08972 |

The first 6 entries again:

- UGUUCUGCAGUUGUCUUCU against AGRP : seed-corrected z-score -0.04972
- AAUAGUAUGACCCUCGAUG against POLR2A : seed-corrected z-score -1.153
- AGACUUUUCACGUAUGUCA against ZNF77 : seed-corrected z-score 0.3109
- UAAAGCCUCAUUCUGAUUC against TTC4 : seed-corrected z-score 0.3301
- UAAAUCUUCAUGCUUAUCA against FAM92A1P2 : seed-corrected z-score 0.6193
- AAACAAAGAACAUGCAGCA against CCL24 : seed-corrected z-score 0.33